Some of the results follow. The main result of the screen is listed elsewhere. These columns were measured beside it and carry no call. The list favours compounds with an active or inconclusive main result. The note in brackets gives the kind of curve behind each potency; many fits are weak.

A word on the AC50: it is the midpoint of the concentration-response curve, whichever way the signal moves.

A short description of this test: qHTS Assay for Lipid Storage Modulators in Drosophila S3 Cells.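 As to cell number change: cells counted by Cell Tracker Red CMTPX staining in the red channel.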 Particulars: BODIPY lipid droplet fluorescence, 18-24 h; for cell number change: measured here: cell count max response, cells fed with added oleic acid. The gist of the method: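 Drosophila S3 cells loaded with oleic acid (400 uM, as added) and compounds at several concentrations; lipid droplets imaged by 488-nm laser-scanning cytometry, 500–530 nm intensity and object ratio to cell channel. Percent activity normalized to 20 uM Triacsin C.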

Setting [1] is: measured here: cell number channel AC50, cells fed with added oleic acid.
The mark [2] stands for this setting: measured here: lipid fluorescence (Fed channel) AC50, cells fed with added oleic acid.

Regarding `N#CCCN(Cc1cccnc1)C(=S)NC(=O)c1ccc(S(=O)(=O)N2CCCC2)cc1`, the cell number change came out at 49.3%. Also, the AC50 under setting [1] was 23.1 µM [rising, single point].
On to `Cc1cnc(Nc2nc3ccccc3o2)nc1C(=O)Nc1cccc(C(F)(F)F)c1`, for which the cell number change was -34.8%. The AC50 under setting [1] was 29.1 µM [falling, single point]. For the same compound, the AC50 under setting [2] is 29.1 µM [falling, partial curve, poor fit].
`COc1cc(OC)c(OC)cc1CNCCNC(=O)c1nonc1N`: the cell number change is 0.13%. Further, the AC50 under setting [2] is 3.26 µM [falling, full curve, poor fit].
For `COc1cccc(CNC(=O)Cn2ccc3cc(S(=O)(=O)N4CCCC4)ccc32)c1`, the cell number change was -4.58%. The AC50 under setting [2] was 23.1 µM [rising, single point].
For `CCOc1ccc(/C(O)=C2/C(=O)C(=O)N(CCCN3CCOCC3)C2c2ccc(F)cc2)cc1C` (stereo not drawn), under setting [1], the AC50 is 0.58 µM [falling, single point].
As to `Cc1cc(NC(=O)CCCn2nc(C)c([N+](=O)[O-])c2C)no1`, the cell number change was -9.63%. In addition, under setting [1], the AC50 is 3.66 µM [falling, single point].
`COc1ccc(NC(=O)C/C(C)=N/NC(=O)COc2ccc(OC)cc2)cc1`: the cell number change stood at 26.9%.
On to `Nn1c(-c2ccco2)n[nH]c1=S`, for which the cell number change is -10.4%. Also, the AC50 under setting [2] is 0.103 µM [falling, full curve, poor fit].
Regarding `CCOC(=O)c1cc(-c2csc(-c3ccc(C(F)(F)F)cc3)n2)on1`, the cell number change stood at 35.1%. The AC50 under setting [1] is 29.1 µM [rising, single point].
As to `Cc1nc(CN2CCCCC2)cc(=O)[nH]1`, the cell number change is -6.43%. The AC50 under setting [2] was 0.00517 µM [falling, full curve, poor fit].
In the case of `COc1cc(OC)c(NS(=O)(=O)c2cc(C(=O)OC(C)C(=O)NC3CC3)c(Cl)cc2Cl)cc1Cl` (stereo not drawn), the AC50 under setting [2] was 0.206 µM [falling, full curve, poor fit].
With `CCOC(=O)c1c(C)[nH]c(C)c1C(=O)COc1ccc(NC(=O)c2ccco2)cc1`, the cell number change is 136%. Moreover, the AC50 under setting [1] is 1.84 µM [rising, full curve]. Also, the AC50 under setting [2] was 1.64 µM [rising, partial curve].
Take `Cc1ccc(N(CC(=O)NC2CCCC2)C(=O)CCCC(=O)Nc2ccccn2)cc1C`: the AC50 runs as follows: under setting [1], 6.51 µM [rising, single point]; under setting [2], 6.51 µM [rising, single point].
In the case of `CC(C)n1c(NCc2ccccc2O)nc2ccccc21`, the cell number change is -11.5%. Besides, the half-maximal activity concentration (AC50) under setting [2] is 23.1 µM [falling, single point].
With `O=C1CSC(c2cccc(F)c2)N1c1ccc(O)cc1` (stereo not drawn), the cell number change came out at 43.4%. Under setting [1], the half-maximal activity concentration (AC50) is 29.1 µM [rising, single point].
With `COCCNC(=O)CN(C(=O)CCC(=O)Nc1ccccn1)c1ccccc1OC`, the cell number change amounted to 31.1%. The AC50 under setting [1] was 32.6 µM [rising, single point].
Regarding `COc1ccc(OC)c(Nc2nc(N)nc(CSc3nnc(N)s3)n2)c1`, the cell number change turned out to be 10.4%. For the same compound, the AC50 under setting [1] was 0.411 µM [rising, full curve]. Further, under setting [2], the AC50 is 0.651 µM [rising, full curve].
For the compound `CSc1nc(Oc2ccccc2)c2sccc2n1`, the cell number change was -8.53%. The AC50 under setting [1] was 0.651 µM [falling, full curve, poor fit]. For the same compound, under setting [2], the AC50 is 6.51 µM [falling, single point].
Turning to `COc1cc(C(=O)OCC(=O)N(C)C)cc(NC(=O)c2ccco2)c1OC`, the cell number change is -4.76%.
With `CC(=O)Oc1ccc2nc(/C=C/c3ccccc3)oc(=O)c2c1`, the cell number change was -4.74%. For the same compound, the AC50 under setting [2] was 32.6 µM [rising, single point].
As to `O=C(CSc1ncnc2sc3c(c12)CCCC3)c1ccco1`, the cell number change was -18.9%. Further, the AC50 under setting [2] was 0.731 µM [rising, full curve, poor fit].
On to `Cc1ccc(-c2nn(-c3ccccc3)cc2/C=N/NC(=O)c2ccncc2)o1`, for which the cell number change was -20%. Under setting [1], the AC50 was 0.0058 µM [falling, full curve, poor fit].
On to `COc1ccc(Cl)c(N2CCN(CCCNC(=O)Nc3ccc(C)cc3)CC2)c1`, for which the cell number change is -24.5%. Further, the AC50 under setting [2] is 18.4 µM [rising, single point].
As for `CC(=O)N(CCCc1ccc(C(C)(C)C)cc1)CCCN(C)C`, the cell number change is 7.82%.
As to `O=C(Nc1cccnc1Cl)c1cc(-c2ccc(Cl)cc2)on1`, the cell number change was 16.2%. Also, under setting [2], the AC50 was 6.51 µM [rising, single point].
`Cn1c(C(=O)NCc2ccc3c(c2)OCO3)cc2sccc21`: the cell number change is -22.9%. For the same compound, the AC50 under setting [2] is 9.2 µM [rising, partial curve, poor fit].
For `CC(OC(=O)c1cc(=O)[nH]c2ccccc12)C(=O)Nc1ccc(Cl)cn1` (stereo not drawn), the cell number change is -8.89%.
As for `Cc1ccc2c(c1)C(=O)CCN2`, the cell number change was -1.26%. The half-maximal activity concentration (AC50) under setting [1] is 0.00651 µM [falling, full curve].
`CCCOc1ccc(-c2nn(-c3ccccc3)cc2/C=C2\SC(=S)N(C3CCS(=O)(=O)C3)C2=O)cc1` (stereo not drawn): the cell number change stood at 20.8%. In addition, the AC50 under setting [2] is 5.8 µM [falling, full curve, poor fit].
Turning to `CCn1c(CC(=O)Nc2ccccc2)nnc1SCC(=O)Nc1ccccc1C(=O)OC`, the AC50 was 2.06 µM [rising, partial curve] under setting [1] and 0.82 µM [rising, full curve] under setting [2].
Take `CC1(C)OC(=O)C(=CNc2ccc(F)cc2)C(=O)O1`: the cell number change was 5.3%. Moreover, the AC50 under setting [2] is 29.1 µM [rising, single point].
With `CCC(C)c1ccccc1N1CC(C(=O)N2CCN(S(=O)(=O)c3ccccc3Br)CC2)CC1=O` (stereo not drawn), the AC50 by setting is: under setting [1], 0.164 µM [falling, full curve, poor fit]; under setting [2], 23.1 µM [falling, single point].
On to `Cc1ccc(NC(=O)c2cnccn2)c(OC(F)F)c1`, for which the cell number change worked out at 242%. In addition, under setting [1], the AC50 was 8.2 µM [rising, partial curve]. Also, under setting [2], the AC50 is 9.2 µM [rising, partial curve].
As to `COCCN(C(=O)c1ccccc1)c1nnc(-c2cccnc2)s1`, the cell number change was -20.1%. Besides, under setting [2], the AC50 was 0.92 µM [falling, full curve, poor fit].
Turning to `Cc1ccc(C(=O)c2c(NC(=O)c3ccncc3)sc3c2CCCC3)cc1`, the cell number change amounted to 62%. For the same compound, the AC50 under setting [1] was 6.51 µM [rising, partial curve]. Besides, under setting [2], the AC50 is 7.31 µM [rising, partial curve].
On to `c1ccc(-c2cc(-c3nc4ccccc4[nH]3)c3ccccc3n2)cc1`, for which the cell number change is 3.51%. The half-maximal activity concentration (AC50) under setting [2] is 1.16 µM [falling, full curve].
Regarding `O=c1cnc2ccccc2n1Cc1ccccc1C(F)(F)F`, the cell number change was -2.02%.

Source of the values: PubChem BioAssay AID2685 (National Center for Advancing Translational Sciences (NCATS), 2010).
